# Assay results: patent publication US12496272B1, “Stable epinephrine suspension formulation for inhalation with HFO propellant” (Amphastar Pharmaceuticals, Inc., priority 2024, dated 2025)
# Test: Environmental properties of HFA and HFO propellants
smiles,measurement,setting,value
"F/C=C/C(F)(F)F [HFO-1234ze(E), trans-1,3,3,3-tetrafluoropropene]",GWP times lower than that of HFA-134a,6 versus 1300,approximately 200 times
same,GWP times lower than that of HFA-227,6 versus 2900,approximately 500 times
